In the supplement of paper PMC10849652:
The list shows a part of the results.

Chains of the proteins cited; added tags and fusions are not shown. Lines headed by an entry give the natural chain unless they say otherwise; changes in a name come on top.
UniProt P11274: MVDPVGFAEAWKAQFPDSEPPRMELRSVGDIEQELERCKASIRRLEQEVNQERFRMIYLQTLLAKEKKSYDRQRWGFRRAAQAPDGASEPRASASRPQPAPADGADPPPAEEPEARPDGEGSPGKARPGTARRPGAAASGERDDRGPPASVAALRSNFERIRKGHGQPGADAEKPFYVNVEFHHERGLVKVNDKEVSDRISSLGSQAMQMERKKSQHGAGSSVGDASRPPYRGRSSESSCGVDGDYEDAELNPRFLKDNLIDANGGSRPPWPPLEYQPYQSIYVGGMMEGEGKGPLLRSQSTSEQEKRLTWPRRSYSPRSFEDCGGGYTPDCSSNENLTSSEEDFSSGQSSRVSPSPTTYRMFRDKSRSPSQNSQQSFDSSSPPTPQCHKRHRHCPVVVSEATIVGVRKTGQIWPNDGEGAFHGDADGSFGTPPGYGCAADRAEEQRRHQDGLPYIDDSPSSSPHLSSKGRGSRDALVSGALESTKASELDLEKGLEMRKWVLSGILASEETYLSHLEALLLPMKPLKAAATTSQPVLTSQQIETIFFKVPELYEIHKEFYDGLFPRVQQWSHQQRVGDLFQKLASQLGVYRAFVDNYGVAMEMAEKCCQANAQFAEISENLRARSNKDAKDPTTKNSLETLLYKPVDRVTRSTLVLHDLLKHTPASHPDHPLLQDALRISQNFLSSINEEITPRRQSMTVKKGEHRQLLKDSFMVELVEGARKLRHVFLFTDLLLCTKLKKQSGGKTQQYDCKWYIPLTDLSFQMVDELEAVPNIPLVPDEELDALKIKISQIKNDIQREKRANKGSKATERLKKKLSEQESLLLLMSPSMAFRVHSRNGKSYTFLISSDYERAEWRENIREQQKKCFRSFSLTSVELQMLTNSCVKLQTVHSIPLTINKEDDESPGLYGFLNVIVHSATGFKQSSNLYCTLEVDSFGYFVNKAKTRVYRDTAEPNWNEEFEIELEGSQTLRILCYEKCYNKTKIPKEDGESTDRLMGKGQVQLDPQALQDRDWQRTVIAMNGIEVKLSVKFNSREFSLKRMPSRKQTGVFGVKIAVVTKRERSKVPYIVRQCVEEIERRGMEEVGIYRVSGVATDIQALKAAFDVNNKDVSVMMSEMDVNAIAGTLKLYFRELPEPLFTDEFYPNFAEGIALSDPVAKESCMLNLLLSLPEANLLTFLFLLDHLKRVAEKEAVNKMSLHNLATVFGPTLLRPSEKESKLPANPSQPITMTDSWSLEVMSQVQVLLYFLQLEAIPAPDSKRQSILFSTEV
UniProt Q9UHR4: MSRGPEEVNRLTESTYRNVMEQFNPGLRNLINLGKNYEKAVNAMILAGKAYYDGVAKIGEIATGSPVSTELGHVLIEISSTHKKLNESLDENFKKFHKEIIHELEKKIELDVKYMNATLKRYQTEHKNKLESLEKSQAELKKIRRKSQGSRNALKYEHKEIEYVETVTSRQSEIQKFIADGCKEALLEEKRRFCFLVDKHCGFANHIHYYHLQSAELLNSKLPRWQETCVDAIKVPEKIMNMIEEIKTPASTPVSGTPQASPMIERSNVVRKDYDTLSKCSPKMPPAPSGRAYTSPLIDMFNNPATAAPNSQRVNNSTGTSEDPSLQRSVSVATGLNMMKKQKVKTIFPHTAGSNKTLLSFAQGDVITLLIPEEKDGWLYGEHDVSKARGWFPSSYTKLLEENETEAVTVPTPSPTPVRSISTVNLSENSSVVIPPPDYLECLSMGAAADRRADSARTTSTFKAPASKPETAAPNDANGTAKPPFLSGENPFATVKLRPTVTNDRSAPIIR
UniProt Q9H3K6: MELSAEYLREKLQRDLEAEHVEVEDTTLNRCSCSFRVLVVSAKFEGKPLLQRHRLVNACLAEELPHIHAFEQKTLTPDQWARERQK
UniProt Q9NRL2: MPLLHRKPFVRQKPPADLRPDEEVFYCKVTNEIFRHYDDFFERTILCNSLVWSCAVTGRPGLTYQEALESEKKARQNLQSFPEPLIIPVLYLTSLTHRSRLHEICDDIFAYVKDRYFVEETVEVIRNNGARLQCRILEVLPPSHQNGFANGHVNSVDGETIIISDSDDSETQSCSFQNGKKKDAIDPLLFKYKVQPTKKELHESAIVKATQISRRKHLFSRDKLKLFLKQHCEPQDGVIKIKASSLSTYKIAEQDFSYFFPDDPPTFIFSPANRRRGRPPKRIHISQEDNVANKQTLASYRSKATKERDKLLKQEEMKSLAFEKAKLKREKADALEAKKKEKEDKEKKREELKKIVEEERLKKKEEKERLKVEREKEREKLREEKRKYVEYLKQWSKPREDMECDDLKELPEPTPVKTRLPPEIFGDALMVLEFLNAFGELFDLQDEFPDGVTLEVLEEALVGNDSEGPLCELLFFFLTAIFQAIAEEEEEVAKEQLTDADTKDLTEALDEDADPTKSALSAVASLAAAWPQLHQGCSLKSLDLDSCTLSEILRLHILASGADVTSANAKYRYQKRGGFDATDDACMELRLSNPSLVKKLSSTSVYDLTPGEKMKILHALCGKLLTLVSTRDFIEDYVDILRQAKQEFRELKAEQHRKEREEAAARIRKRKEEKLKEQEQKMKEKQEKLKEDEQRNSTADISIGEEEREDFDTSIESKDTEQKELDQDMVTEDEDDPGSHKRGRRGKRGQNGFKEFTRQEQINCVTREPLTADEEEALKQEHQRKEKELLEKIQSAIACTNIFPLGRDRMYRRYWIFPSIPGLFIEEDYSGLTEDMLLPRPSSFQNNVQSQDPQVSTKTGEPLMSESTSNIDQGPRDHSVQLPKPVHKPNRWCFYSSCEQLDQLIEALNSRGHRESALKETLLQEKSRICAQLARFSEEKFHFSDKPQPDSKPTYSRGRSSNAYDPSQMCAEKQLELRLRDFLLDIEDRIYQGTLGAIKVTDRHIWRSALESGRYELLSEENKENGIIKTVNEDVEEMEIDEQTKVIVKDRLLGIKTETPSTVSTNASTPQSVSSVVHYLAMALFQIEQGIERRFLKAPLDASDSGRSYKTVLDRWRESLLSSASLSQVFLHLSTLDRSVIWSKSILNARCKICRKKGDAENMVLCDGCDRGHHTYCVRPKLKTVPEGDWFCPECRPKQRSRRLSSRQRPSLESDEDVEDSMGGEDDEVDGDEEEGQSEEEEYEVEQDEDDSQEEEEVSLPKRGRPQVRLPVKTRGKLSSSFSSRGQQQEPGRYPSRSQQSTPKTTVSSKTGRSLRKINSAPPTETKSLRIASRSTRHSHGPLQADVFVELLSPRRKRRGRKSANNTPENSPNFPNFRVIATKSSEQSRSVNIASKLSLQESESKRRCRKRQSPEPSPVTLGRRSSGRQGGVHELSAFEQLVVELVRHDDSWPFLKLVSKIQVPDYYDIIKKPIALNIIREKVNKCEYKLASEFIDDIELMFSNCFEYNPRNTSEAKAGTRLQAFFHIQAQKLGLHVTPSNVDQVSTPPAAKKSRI
UniProt Q9HB09: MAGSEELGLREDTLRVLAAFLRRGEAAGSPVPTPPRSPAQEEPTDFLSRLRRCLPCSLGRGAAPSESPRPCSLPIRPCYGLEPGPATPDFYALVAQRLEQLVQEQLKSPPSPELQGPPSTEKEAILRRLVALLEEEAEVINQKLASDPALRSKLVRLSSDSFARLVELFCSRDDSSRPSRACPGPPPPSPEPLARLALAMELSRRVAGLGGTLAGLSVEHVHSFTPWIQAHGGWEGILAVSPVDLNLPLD
UniProt P53004: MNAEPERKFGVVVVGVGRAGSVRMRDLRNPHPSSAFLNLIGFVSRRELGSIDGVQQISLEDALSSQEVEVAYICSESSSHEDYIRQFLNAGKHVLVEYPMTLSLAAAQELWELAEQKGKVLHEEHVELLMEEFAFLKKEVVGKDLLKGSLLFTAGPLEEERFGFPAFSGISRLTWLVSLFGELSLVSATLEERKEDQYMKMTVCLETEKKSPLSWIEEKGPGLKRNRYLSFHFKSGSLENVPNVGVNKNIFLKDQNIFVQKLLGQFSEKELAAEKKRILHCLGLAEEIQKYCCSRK
UniProt Q9NUP1: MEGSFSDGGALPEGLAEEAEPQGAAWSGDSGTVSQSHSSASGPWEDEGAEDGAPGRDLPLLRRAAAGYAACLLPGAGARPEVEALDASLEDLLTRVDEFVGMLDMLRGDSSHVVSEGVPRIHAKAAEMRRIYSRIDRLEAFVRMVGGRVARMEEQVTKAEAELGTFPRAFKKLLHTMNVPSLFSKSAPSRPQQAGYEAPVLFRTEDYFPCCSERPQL
UniProt Q12981: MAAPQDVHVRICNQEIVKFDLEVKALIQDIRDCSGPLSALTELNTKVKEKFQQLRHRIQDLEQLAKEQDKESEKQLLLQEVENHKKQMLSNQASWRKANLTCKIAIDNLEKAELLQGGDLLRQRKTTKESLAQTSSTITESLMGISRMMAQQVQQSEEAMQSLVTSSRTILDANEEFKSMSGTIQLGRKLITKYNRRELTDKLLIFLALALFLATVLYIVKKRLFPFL
UniProt O14867: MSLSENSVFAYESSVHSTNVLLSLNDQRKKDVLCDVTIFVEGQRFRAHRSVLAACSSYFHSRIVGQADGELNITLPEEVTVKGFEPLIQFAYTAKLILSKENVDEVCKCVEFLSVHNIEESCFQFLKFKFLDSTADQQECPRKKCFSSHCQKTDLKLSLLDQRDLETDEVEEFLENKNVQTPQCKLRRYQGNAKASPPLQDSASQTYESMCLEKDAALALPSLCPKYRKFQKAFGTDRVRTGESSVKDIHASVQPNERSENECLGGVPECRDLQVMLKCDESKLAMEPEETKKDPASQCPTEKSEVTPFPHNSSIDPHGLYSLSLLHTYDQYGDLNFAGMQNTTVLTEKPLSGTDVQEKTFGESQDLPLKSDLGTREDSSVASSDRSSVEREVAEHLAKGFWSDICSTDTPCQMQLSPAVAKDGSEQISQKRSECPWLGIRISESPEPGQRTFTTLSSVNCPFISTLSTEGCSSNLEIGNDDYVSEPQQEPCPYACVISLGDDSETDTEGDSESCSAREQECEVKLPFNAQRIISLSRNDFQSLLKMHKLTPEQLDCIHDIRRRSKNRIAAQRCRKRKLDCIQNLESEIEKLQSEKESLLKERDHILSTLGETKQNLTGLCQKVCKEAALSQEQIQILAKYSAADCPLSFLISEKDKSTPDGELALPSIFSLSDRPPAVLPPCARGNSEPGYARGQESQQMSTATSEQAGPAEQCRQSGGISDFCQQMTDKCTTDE
UniProt Q9NYM9: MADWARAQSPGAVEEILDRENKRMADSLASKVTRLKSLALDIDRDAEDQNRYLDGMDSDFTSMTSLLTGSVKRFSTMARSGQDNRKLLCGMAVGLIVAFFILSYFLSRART
UniProt Q96G01: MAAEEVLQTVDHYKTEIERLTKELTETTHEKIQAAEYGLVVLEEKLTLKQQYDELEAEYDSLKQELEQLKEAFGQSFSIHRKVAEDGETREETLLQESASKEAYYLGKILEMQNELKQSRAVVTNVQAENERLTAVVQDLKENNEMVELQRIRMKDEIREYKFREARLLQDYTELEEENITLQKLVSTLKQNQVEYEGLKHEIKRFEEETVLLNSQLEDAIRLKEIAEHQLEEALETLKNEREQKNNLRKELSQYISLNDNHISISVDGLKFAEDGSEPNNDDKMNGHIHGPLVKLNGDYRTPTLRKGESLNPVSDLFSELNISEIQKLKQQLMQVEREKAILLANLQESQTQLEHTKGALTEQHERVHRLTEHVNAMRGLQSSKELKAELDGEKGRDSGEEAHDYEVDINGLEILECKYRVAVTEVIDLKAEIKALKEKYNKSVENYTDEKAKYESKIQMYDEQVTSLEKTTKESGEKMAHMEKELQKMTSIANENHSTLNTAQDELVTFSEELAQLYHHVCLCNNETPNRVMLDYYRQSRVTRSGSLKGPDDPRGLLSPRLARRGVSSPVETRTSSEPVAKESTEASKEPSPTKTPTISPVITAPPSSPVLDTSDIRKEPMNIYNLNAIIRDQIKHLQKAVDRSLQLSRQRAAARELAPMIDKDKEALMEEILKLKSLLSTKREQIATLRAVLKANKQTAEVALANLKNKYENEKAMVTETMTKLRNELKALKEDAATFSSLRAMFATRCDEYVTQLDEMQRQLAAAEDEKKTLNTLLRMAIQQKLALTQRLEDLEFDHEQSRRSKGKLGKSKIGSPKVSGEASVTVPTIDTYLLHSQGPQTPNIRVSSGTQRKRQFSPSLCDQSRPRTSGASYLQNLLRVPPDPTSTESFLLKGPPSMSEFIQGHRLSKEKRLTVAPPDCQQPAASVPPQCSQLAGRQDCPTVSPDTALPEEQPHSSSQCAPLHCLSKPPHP
UniProt Q53S33: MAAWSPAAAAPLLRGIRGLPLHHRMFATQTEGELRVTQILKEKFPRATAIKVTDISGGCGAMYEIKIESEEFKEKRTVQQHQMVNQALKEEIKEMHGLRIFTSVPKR

Tests used:
Assay in all cases: log2 fold change, soluble protein after heating vs DMSO (PISA); higher = thermal stabilisation; K562 lysate, 10 uM; active = over 0.2 and 3.5 SD of the protein, either way, in both replicates (recomputed)
erlotinib = compound: C#Cc1cccc(Nc2ncnc3cc(OCCOC)c(OCCOC)cc23)c1 [erlotinib]
Outline: (§1)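 Pellets of K562 cells were dounce-homogenised in PBS pH 7.4 with 1 mM MgCl2, and the crude extract was held at 1 mg/mL protein for a 30 min treatment with 10 μM compound. Aliquots were heated for 3 min over 48°C-58°C and pooled before NP-40 was added to 0.5% at 4°C. The supernatant from 21,000xg for 90 min was quantified by TMTpro 16plex LC-MS/MS with channel sums equalised. Values are reported from duplicates as log-two fold change in thermal stability relative to solvent controls.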

[1] = compound: C/C(=N\NC(=O)C1=CC(=CC=C1)S(=O)(=O)N2CCOCC2)/C3=C(C=CC(=C3)Cl)O
Outline: as §1

[2] = compound: C1=CC(=CC=C1C2=NC3=C(N2)C=C(C=C3)C(=O)N)OC4=CC=C(C=C4)Cl
Outline: as §1

[3] = compound: C1=CC2=C(C=CC(=C2)/C=C\3/C(=O)NC(=NCC4=CC=CS4)S3)N=C1
Outline: as §1

[4] = compound: C1=CC2=NC=CN=C2C=C1/C=C/3\C(=O)NC(=O)S3
Outline: as §1

[5] = compound: C1=CC=C(C=C1)C2=NC(=C(N2)C3=CC=NC=C3)C4=CC(=C(C=C4)Cl)O
Outline: as §1

[6] = compound: C1=CC=C2C(=C1)C3=NNC4=CC=CC(=C43)C2=O
Outline: as §1

[7] = compound: C1CCN(C1)C(=O)NC2=CC=CC(=C2)NC3=NC=C(C(=N3)NCCC4=CN=CN4)Br
Outline: as §1

[8] = compound: C1CN(CCC1(CC2=CC=C(C=C2)Cl)N)C3=NC=NC4=C3C=CN4
Outline: as §1

IRAK-1-4 Inhibitor I = compound: C1COCCN1CCN2C3=CC=CC=C3N=C2NC(=O)C4=CC(=CC=C4)[N+](=O)[O-] [IRAK-1-4 Inhibitor I]
Outline: as §1

Measured: log2 fold change

BPTF (UniProt Q12830)
inactive: erlotinib 0.034 | [1] -0.001 | [2] 0.039 | [3] -0.002 | [4] -0.027 | [5] 0.001 | [6] -0.048 | [7] -0.018 | [8] 0.003 | IRAK-1-4 Inhibitor I 0.015

BCR (UniProt P11274)
inactive: erlotinib -0.006 | [1] 0.037 | [2] 0.047 | [3] 0.012 | [4] -0.01 | [5] 0.004 | [6] -0.052 | [7] -0.025 | [8] -0.011 | IRAK-1-4 Inhibitor I -0.041

BAIAP2L1 (UniProt Q9UHR4)
inactive: erlotinib -0.024 | [1] -0.006 | [2] 0.001 | [3] 0.015 | [4] -0.023 | [5] 0.025 | [6] 0.031 | [7] -0.003 | [8] -0.015 | IRAK-1-4 Inhibitor I -0.01

2 records picked at random from the list so far, as already listed:
BPTF (UniProt Q12830)
inactive: erlotinib 0.034 | [1] -0.001 | [2] 0.039 | [3] -0.002 | [4] -0.027 | [5] 0.001 | [6] -0.048 | [7] -0.018 | [8] 0.003 | IRAK-1-4 Inhibitor I 0.015

BCR (UniProt P11274)
inactive: erlotinib -0.006 | [1] 0.037 | [2] 0.047 | [3] 0.012 | [4] -0.01 | [5] 0.004 | [6] -0.052 | [7] -0.025 | [8] -0.011 | IRAK-1-4 Inhibitor I -0.041

(list continues)

BOLA2 (UniProt Q9H3K6)
inactive: erlotinib 0.008 | [1] 0.078 | [2] -0.112 | [3] -0.007 | [4] 0.032 | [5] 0.01 | [6] 0.039 | [7] 0.034 | [8] 0.006 | IRAK-1-4 Inhibitor I 0.013

BAZ1A (UniProt Q9NRL2)
inactive: erlotinib 0.048 | [1] 0.235 | [2] -0.172 | [3] -0.148 | [4] -0.057 | [5] 0.004 | [6] 0.004 | [7] 0 | [8] 0.16 | IRAK-1-4 Inhibitor I 0.026

BAG3 (UniProt O95817)
inactive: erlotinib -0.047 | [1] 0.001 | [2] -0.02 | [3] -0.021 | [4] -0.005 | [5] 0.005 | [6] -0.002 | [7] 0.001 | [8] -0.003 | IRAK-1-4 Inhibitor I 0.008

BAZ1B (UniProt Q9UIG0)
inactive: erlotinib -0.022 | [1] -0.024 | [2] -0.026 | [3] 0.005 | [4] -0.016 | [5] 0.034 | [6] 0.001 | [7] 0.039 | [8] -0.029 | IRAK-1-4 Inhibitor I -0.044

BCL2L12 (UniProt Q9HB09)
inactive: erlotinib 0.055 | [1] -0.067 | [2] -0.01 | [3] -0.056 | [4] 0.119 | [5] -0.111 | [6] 0.144 | [7] 0.162 | [8] 0.015 | IRAK-1-4 Inhibitor I 0.002

BMS1 (UniProt Q14692)
inactive: erlotinib -0.029 | [1] -0.089 | [2] -0.027 | [3] 0.028 | [4] -0.046 | [5] 0.034 | [6] 0.039 | [7] 0.006 | [8] 0.01 | IRAK-1-4 Inhibitor I -0.01

BLVRA (UniProt P53004)
inactive: erlotinib 0.006 | [1] 0.027 | [2] 0.001 | [3] -0.01 | [4] 0.012 | [5] -0.023 | [6] 0.011 | [7] -0.009 | [8] 0.017 | IRAK-1-4 Inhibitor I 0.027

BLOC1S4 (UniProt Q9NUP1)
inactive: erlotinib 0.023 | [1] -0.06 | [2] 0 | [3] -0.024 | [4] -0.022 | [5] 0.001 | [6] 0.027 | [7] 0.122 | [8] 0.099 | IRAK-1-4 Inhibitor I 0

BCAT2 (UniProt O15382)
inactive: erlotinib -0.012 | [1] -0.001 | [2] 0.009 | [3] -0.012 | [4] -0.012 | [5] 0.008 | [6] -0.003 | [7] 0.015 | [8] 0.011 | IRAK-1-4 Inhibitor I 0.014

BANP (UniProt Q8N9N5)
inactive: erlotinib 0.042 | [1] 0.088 | [2] 0.047 | [3] 0.064 | [4] -0.005 | [5] -0.015 | [6] 0.113 | [7] -0.01 | [8] -0.01 | IRAK-1-4 Inhibitor I 0.065

BLOC1S5 (UniProt Q8TDH9)
inactive: erlotinib -0.027 | [1] -0.045 | [2] 0.011 | [3] 0.041 | [4] 0.004 | [5] 0.024 | [6] 0.008 | [7] -0.006 | [8] -0.019 | IRAK-1-4 Inhibitor I 0.045

BRD8 isoform 2 (UniProt Q9H0E9)
inactive: erlotinib -0.003 | [1] 0.049 | [2] 0.064 | [3] 0.023 | [4] -0.003 | [5] 0.009 | [6] -0.007 | [7] 0.001 | [8] -0.023 | IRAK-1-4 Inhibitor I -0.016

BRIX1 (UniProt Q8TDN6)
inactive: erlotinib -0.012 | [1] -0.117 | [2] -0.028 | [3] 0.005 | [4] -0.009 | [5] 0.033 | [6] 0.07 | [7] 0.02 | [8] -0.001 | IRAK-1-4 Inhibitor I -0.013

BARD1 (UniProt Q99728)
inactive: erlotinib 0.022 | [1] -0.178 | [2] 0.011 | [3] -0.213 | [4] 0.206 | [5] 0.077 | [6] 0.049 | [7] 0.071 | [8] 0.07 | IRAK-1-4 Inhibitor I 0.061

BROX (UniProt Q5VW32)
inactive: erlotinib -0.006 | [1] 0.031 | [2] -0.012 | [3] -0.009 | [4] -0.017 | [5] -0.007 | [6] 0 | [7] 0.006 | [8] -0.025 | IRAK-1-4 Inhibitor I -0.03

BCL7C isoform 2 (UniProt Q8WUZ0)
inactive: erlotinib -0.034 | [1] 0.035 | [2] -0.045 | [3] 0.02 | [4] -0.041 | [5] 0.02 | [6] -0.043 | [7] -0.051 | [8] -0.013 | IRAK-1-4 Inhibitor I -0.043

BTN2A1 (UniProt Q7KYR7)
inactive: erlotinib 0.013 | [1] -0.143 | [2] 0.017 | [3] -0.006 | [4] -0.046 | [5] 0.01 | [6] -0.189 | [7] 0.022 | [8] 0.029 | IRAK-1-4 Inhibitor I -0.019

BNIP1 (UniProt Q12981)
inactive: erlotinib -0.028 | [1] 0.05 | [2] -0.048 | [3] -0.011 | [4] -0.026 | [5] 0.071 | [6] -0.009 | [7] 0.002 | [8] 0.018 | IRAK-1-4 Inhibitor I -0.004

BACH1 (UniProt O14867)
inactive: erlotinib 0.033 | [1] 0.005 | [2] 0.002 | [3] 0.02 | [4] 0.013 | [5] 0.038 | [6] 0.006 | [7] -0.031 | [8] 0.023 | IRAK-1-4 Inhibitor I 0.027

BET1L (UniProt Q9NYM9)
inactive: erlotinib 0.04 | [1] -0.025 | [2] -0.049 | [3] 0.064 | [4] 0.071 | [5] -0.04 | [6] -0.16 | [7] -0.059 | [8] 0.029 | IRAK-1-4 Inhibitor I -0.025

BABAM2 (UniProt Q9NXR7)
inactive: erlotinib 0.011 | [1] -0.034 | [2] 0.007 | [3] -0.007 | [4] -0.004 | [5] 0.018 | [6] -0.047 | [7] -0.021 | [8] 0.01 | IRAK-1-4 Inhibitor I 0.011

BPNT1 (UniProt A6NF51)
inactive: erlotinib 0.007 | [1] 0.166 | [2] 0.088 | [3] -0.144 | [4] -0.074 | [5] 0 | [6] -0.017 | [7] -0.229 | [8] 0.13 | IRAK-1-4 Inhibitor I 0.028

BICD1 (UniProt Q96G01)
inactive: erlotinib 0.002 | [1] -0.013 | [2] 0.012 | [3] 0.008 | [4] -0.039 | [5] 0.023 | [6] 0.025 | [7] -0.024 | [8] 0.038 | IRAK-1-4 Inhibitor I 0.013

BCAR1 isoform 6 (UniProt P56945)
inactive: erlotinib 0.005 | [1] -0.043 | [2] 0.052 | [3] 0.048 | [4] -0.019 | [5] 0.019 | [6] -0.063 | [7] 0.041 | [8] 0.021 | IRAK-1-4 Inhibitor I -0.017

BIRC2 (UniProt Q13490)
inactive: erlotinib 0.034 | [1] 0.005 | [2] -0.022 | [3] -0.025 | [4] 0.022 | [5] -0.015 | [6] 0.061 | [7] 0.013 | [8] 0.011 | IRAK-1-4 Inhibitor I 0.01

BRAP (UniProt Q7Z569)
inactive: erlotinib 0.004 | [1] -0.005 | [2] 0.013 | [3] -0.008 | [4] 0 | [5] 0.01 | [6] -0.032 | [7] -0.035 | [8] 0.027 | IRAK-1-4 Inhibitor I 0.005

BOLA3 (UniProt Q53S33)
inactive: erlotinib 0.023 | [1] 0.005 | [2] 0.016 | [3] -0.047 | [4] 0.026 | [5] -0.026 | [6] 0.018 | [7] 0.021 | [8] -0.008 | IRAK-1-4 Inhibitor I 0.026
